Results: paper PMC4338625

Chains of the proteins cited; added tags and fusions are not shown. Lines headed by an entry give the natural chain unless they say otherwise; changes in a name come on top.
UniProt Q01892: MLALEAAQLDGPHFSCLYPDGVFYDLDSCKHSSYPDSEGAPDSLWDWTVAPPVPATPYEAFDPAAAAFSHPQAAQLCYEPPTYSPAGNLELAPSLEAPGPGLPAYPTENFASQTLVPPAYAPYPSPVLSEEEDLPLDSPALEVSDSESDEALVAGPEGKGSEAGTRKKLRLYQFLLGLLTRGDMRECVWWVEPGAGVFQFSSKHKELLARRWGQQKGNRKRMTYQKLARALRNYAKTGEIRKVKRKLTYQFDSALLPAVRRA

How the values were obtained:
SPIB (human) = SPIB (human) (UniProt Q01892); experiment: EMSA; conditions: EMSA conditions not printed (as previously described, ref 5); protein stock in 10 mM Tris pH 7.9, 0.5 mM EDTA, 200 mM KCl, 1 mM DTT, 10% glycerol; recombinant protein; residues 1-262; protein details: N-term 6xHis
ELF1 (human) = target: T1, ELF1 (human) (UniProt P32519); experiment: EMSA; conditions: EMSA conditions not printed (as previously described, ref 5); protein stock in 10 mM Tris pH 7.9, 0.5 mM EDTA, 200 mM KCl, 1 mM DTT, 10% glycerol; recombinant protein; residues 1-619; protein details: N-term 6xHis
T1 sequence (looked up): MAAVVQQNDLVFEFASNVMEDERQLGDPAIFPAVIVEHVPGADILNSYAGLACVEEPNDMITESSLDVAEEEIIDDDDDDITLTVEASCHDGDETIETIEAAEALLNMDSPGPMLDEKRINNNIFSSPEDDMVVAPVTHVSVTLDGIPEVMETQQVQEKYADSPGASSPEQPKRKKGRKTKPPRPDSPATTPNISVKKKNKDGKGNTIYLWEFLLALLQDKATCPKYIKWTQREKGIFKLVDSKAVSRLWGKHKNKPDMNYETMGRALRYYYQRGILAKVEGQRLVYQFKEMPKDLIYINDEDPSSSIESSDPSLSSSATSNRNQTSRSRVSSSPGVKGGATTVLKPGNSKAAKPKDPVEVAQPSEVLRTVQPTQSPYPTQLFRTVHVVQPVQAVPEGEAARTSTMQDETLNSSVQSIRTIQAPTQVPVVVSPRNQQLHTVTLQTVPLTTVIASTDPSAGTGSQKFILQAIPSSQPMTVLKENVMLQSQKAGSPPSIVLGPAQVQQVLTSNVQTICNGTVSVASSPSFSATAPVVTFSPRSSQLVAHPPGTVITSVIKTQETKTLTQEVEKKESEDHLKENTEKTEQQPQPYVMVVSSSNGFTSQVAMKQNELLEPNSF

GCCACGGCCCAGGAAGTGACTCACCCACCCTGATG (double strand) [ETS consensus EMSA probe]
binding result (SPIB (human)): binds | binding result (ELF1 (human)): binds

The exact form of at least one protein or probe is not confirmed. At least one verdict rests on a figure or table, not on a statement of the authors. For some assays here: Protein sequences can lack the tags named with them.
